In the supplement of paper PMC3334620:
Over roughly 33,000 sequences, “E-score (-0.5 to 0.5)” has its median near -0.015; the highest 2% begin near 0.3. The list shows a part of the results.

target: T1, Abf1 (UniProt P14164); experiment: PBM E-score (8-mer binding enrichment) (E-score (-0.5 to 0.5)); higher = stronger / more preferred TF binding; details: protein concentration: 200 nM; construct: GST-full length
T1 sequence: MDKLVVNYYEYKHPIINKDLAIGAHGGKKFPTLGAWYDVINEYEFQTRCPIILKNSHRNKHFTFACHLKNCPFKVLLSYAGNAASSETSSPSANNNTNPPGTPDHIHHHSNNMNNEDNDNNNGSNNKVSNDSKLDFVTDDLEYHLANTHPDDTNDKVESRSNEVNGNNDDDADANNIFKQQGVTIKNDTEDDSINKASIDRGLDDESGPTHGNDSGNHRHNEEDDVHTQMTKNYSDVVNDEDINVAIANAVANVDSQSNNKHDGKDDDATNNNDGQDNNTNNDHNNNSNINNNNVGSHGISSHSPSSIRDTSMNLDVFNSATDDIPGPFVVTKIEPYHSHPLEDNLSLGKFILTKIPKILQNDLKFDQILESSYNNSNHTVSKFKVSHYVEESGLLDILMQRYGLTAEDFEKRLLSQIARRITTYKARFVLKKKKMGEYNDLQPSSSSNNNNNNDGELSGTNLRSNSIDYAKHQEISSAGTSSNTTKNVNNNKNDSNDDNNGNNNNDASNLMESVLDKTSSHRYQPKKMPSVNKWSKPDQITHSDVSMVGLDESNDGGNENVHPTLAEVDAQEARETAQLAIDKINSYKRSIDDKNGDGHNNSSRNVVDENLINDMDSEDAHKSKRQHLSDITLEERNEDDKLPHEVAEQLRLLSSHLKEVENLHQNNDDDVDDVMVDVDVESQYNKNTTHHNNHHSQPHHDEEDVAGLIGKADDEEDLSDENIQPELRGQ
Protocol: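 Universal 'all 10-mer' protein binding microarrays (Agilent AMADID 015681) probed with GST-tagged S. cerevisiae TFs (full-length or DBD) made by in vitro transcription/translation (PURExpress), about 100-200 nM. Bound TF was detected with fluorescent anti-GST. Each ungapped 8-mer (which stands for itself and its reverse complement) is scored by the PBM enrichment score (E-score), a modified Wilcoxon-Mann-Whitney statistic from -0.5 to +0.5, computed with the Universal PBM Analysis Suite. Scale: above 0.35 generally sequence-specific binding.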

| Sequence | PBM E-score |
| --- | --- |
| CTGAGGCC | -0.204 |
| TGCTAGAA | 0.144 |
| GTCTCCTA | -0.133 |
| GATCGGAA | -0.208 |
| ATTAACTG | 0.0612 |
| GATAATGC | 0.146 |
| ACAAAGAA | 0.126 |
| GAATAAGC | -0.16 |
| AATCAGCT | 0.0593 |
| CGTGACGC | 0.152 |
| CAAACCCC | -0.197 |
| AACAGCGT | -0.0133 |
| TCACTCGA | 0.215 |
| CGAGGCAA | -0.0834 |
| CGAATAAA | 0.106 |
| AGCCTTGA | -0.179 |
| ATCGGTAA | 0.0617 |
| AGGCACAG | -0.192 |
| CAGACACA | -0.0358 |
| AGTTGCTA | -0.0289 |
| CACGGGCG | 0.0264 |
| CTAGGGTC | -0.187 |
| ACAGACAA | 0.193 |
| CCTACTTA | -0.0458 |
| GCTGGCCA | -0.118 |

| Sequence | PBM E-score |
| --- | --- |
| GAGCTCAC | -0.152 |
| CAATGTGA | 0.143 |
| ATCTACAG | 0.0367 |
| AGACGGGC | 0.0196 |
| AAGTCTCT | -0.189 |
| TATGCGGA | 0.0153 |
| ACGGATTC | -0.0334 |
| AGCTCGGA | -0.0875 |
| CAGGGACA | 0.0375 |
| GTATTTCA | 0.104 |
| CGCACGCA | -0.177 |
| CACCCCAC | -0.033 |
| TAGGAAGA | -0.187 |
| CGTTGTTA | 0.208 |
| GAGGCGCC | 0.107 |
| CAACTACG | -0.0494 |
| CGAGTACG | -0.0179 |
| AGTGTTGG | -0.0795 |
| CGCTGGGA | -0.195 |
| AAATATCG | 0.271 |
| ACCATCCT | -0.0137 |
| TCTGTAAA | -0.0311 |
| ACCAAGGT | -0.0774 |
| GGATACGA | 0.28 |
| ATAAGCCC | -0.247 |

| Sequence | PBM E-score |
| --- | --- |
| ATATACGG | 0.339 |
| CCCCAAAA | -0.0266 |
| CATCTAGG | -0.0153 |
| CCTAATAA | 0.00019 |
| CTTCGTAA | 0.161 |
| ATGATAAA | 0.406 |
| ACTCTTTC | -0.0974 |
| CCTTCTGA | -0.194 |
| ATCTAGAA | -0.00499 |
| AAAACCCA | 0.131 |
| GCTCGCAA | 0.11 |
| ACTGGGTG | -0.191 |
| CCTCAGGA | -0.029 |
| ACTCGATG | 0.131 |
| CAGGCCTG | -0.184 |
| CGCAGGGA | -0.223 |
| AGTGTAGA | -0.0996 |
| CGCAAGCG | -0.158 |
| GGTCGGAC | -0.0599 |
| TAGATCTA | 0.0736 |
| ATATCAAA | 0.0352 |
| AGCCGTTC | -0.0626 |
| TACCCCTA | -0.0769 |
| AAGTCGTC | 0.112 |
| CAACACAC | 0.0624 |

| Sequence | PBM E-score |
| --- | --- |
| CTGCATTC | -0.0482 |
| AAAAAGGG | -0.0754 |
| AGGGAAAA | 0.01 |
| AGAGGGTC | -0.274 |
| AACTGGGA | -0.0619 |
| GCTACCCA | -0.122 |
| GACAGAGC | -0.0294 |
| ATACAAAG | 0.133 |
| CACCTGTA | -0.172 |
| GGAGGCAC | -0.183 |
| ACTTACCG | -0.0584 |
| AATCATTC | 0.24 |
| ATCGGTGC | -0.0451 |
| AACTCGCC | -0.085 |
| ACTAGACC | 0.0436 |
| ACACAACG | 0.063 |
| ATCGCTAA | 0.28 |
| CGAGGGCA | -0.0824 |
| GCACACGA | 0.303 |
| CTGCTAAG | -0.323 |
| AGACCGAA | -0.0106 |
| GAATAGAA | 0.093 |
| ACGTACGG | 0.328 |
| GATATCGC | 0.341 |
| ACGCATGG | -0.155 |

| Sequence | PBM E-score |
| --- | --- |
| AAGGCATA | -0.0159 |
| AAGGCAGT | 0.0202 |
| GTGGGTCA | -0.0817 |
| AAGCCGTA | 0.193 |
| CATTGAAA | 0.168 |
| CCCATGGA | -0.19 |
| ATACATGA | -0.00552 |
| CGCCAAGA | -0.0926 |
| CAATTCTA | -0.0487 |
| ACCTGCAA | -0.133 |
| AGCTGTAC | -0.345 |
| ATTCATGG | -0.165 |
| GCCGCTAA | -0.0689 |
| TTATTGAA | 0.115 |
| CGGTGGCA | -0.0877 |
| AGATGTGC | -0.159 |
| AAAACCAT | -0.0494 |
| CGACCTTA | 0.117 |
| AAGTTCTA | -0.0163 |
| AATAGGTA | 0.106 |
| CCGCCTCC | -0.2 |
| AGCACCAG | -0.0249 |
| GCACCACA | -0.0375 |
| TAACGAGA | 0.295 |
| CCGATGTC | 0.159 |

| Sequence | PBM E-score |
| --- | --- |
| CAGCTAAC | -0.199 |
| TCATCTCA | 0.235 |
| GGAATGCC | -0.154 |
| AACTTACT | 0.0556 |
| ACGCCAGG | -0.192 |
| ATATCTTA | 0.246 |
| ACACTGGG | -0.134 |
| CTATTGTA | 0.118 |
| AAAGGGAG | -0.163 |
| ACCTAGGA | 0.00148 |
| GCCGGCAA | -0.135 |
| GAGTCACC | -0.151 |
| CGCTTGTA | -0.0156 |
| ATAATTTA | 0.211 |
| ACGTCCAG | -0.0289 |
| AGAAGACT | -0.0993 |
| AATACTCT | 0.0423 |
| ATCCCTCA | -0.0454 |
| AGTGCGAA | -0.196 |
| CTAGCCAA | -0.0616 |
| CATTTGCG | -0.00415 |
| ATTACGGC | 0.184 |
| GTTGGAAA | 0.0804 |
| GCTCATTA | 0.0158 |
| CGTACCCA | 0.0561 |

| Sequence | PBM E-score |
| --- | --- |
| TACGTTAA | 0.132 |
| AGAATCTC | -0.0695 |
| ATACCTTG | 0.0637 |
| AAACAGAG | -0.0224 |
| CCGGCCCG | -0.279 |
| GGTATACA | -0.025 |
| ATAGGAAC | 0.108 |
| AGGCATAT | 0.1 |
| GTGCTATA | 0.0607 |
| CTTCAAGC | -0.0226 |
| GAGCCCTC | -0.173 |
| ACTGCAGG | -0.126 |
| GGGTTCCA | -0.176 |
| ACGATTGA | 0.137 |
| CCACCCGA | -0.0446 |
| CGACCGTA | 0.151 |
| CAGAGTTA | 0.0296 |
| CGGATGTC | 0.0511 |
| ACGGAAGT | 0.143 |
| AACGTTCT | 0.125 |
| ATGCCATA | -0.00719 |
| AGAGGGCT | -0.283 |
| CCGTCACC | 0.112 |
| ACATCAGG | -0.00197 |
| ATTTAGGG | 0.184 |

| Sequence | PBM E-score |
| --- | --- |
| AGAATAGA | 0.0064 |
| ACCAGCAT | -0.218 |
| ACGCATTA | -0.00512 |
| AGGATACT | -0.00263 |
| AAGGTAAC | 0.155 |
| ACTTGCAA | 0.112 |
| TGGGCACA | -0.0575 |
| ATGGGCAA | -0.201 |
| GTGTGAAC | -0.0296 |
| AACCCTGT | -0.0611 |
| ATTGTTTG | 0.0598 |
| TCAGTTCA | 0.157 |
| GGGAGAAC | -0.163 |
| TAGATCGA | -0.0229 |
| AGCCCTTG | -0.184 |
| GATTGCTA | -0.0668 |
| GATCGGCA | -0.139 |
| CACTATCC | 0.137 |
| CCGATGGC | -0.271 |
| AAAAAAGC | -0.103 |
| AATGGTCA | 0.173 |
| GCTGAATA | -0.136 |
| CGCGACCC | 0.135 |
| CAATTCTG | -0.232 |
| TGCTAAAA | 0.0819 |

Part of the list above, with tabs:
Sequence	PBM E-score
GATCGGCA	-0.139
CACTATCC	0.137
CCGATGGC	-0.271

An excerpt of these results, with each value named:
ATGGGCAA
  PBM E-score = -0.201
GTGTGAAC
  PBM E-score = -0.0296
GGGAGAAC
  PBM E-score = -0.163
TAGATCGA
  PBM E-score = -0.0229

Additional records follow.

| Sequence | PBM E-score |
| --- | --- |
| TCGACAGA | -0.218 |
| AGAAGTGA | 0.243 |
| ATCTTAGC | -0.126 |
| AACACCAT | -0.106 |
| ACAAAAAT | 0.128 |
| CCGAAGGC | -0.0649 |
| GATAGCGC | 0.13 |
| AGATGGCC | -0.053 |
| ACTACTCG | -0.0323 |
| CGGCGTAC | 0.136 |
| ATAACGCG | 0.118 |
| AACGCAAA | 0.0846 |
| GCATTAAA | 0.117 |
| CTTCTAGC | -0.185 |
| CATGGAAC | -0.0557 |
| GGATGAAA | 0.128 |
| CTCAAGAA | -0.131 |
| CCACTGCC | -0.161 |
| AGAGTACC | 0.107 |

5 records picked at random from those above, as already listed:

| Sequence | PBM E-score |
| --- | --- |
| GATAGCGC | 0.13 |
| AGAGTACC | 0.107 |
| TCGACAGA | -0.218 |
| ACAAAAAT | 0.128 |
| CCACTGCC | -0.161 |
